One molecule from US20020099177A1 (Human Genome Sciences, published 2002) can be followed below.

For the assay, the target named is TRAF2 (Flag-TRAF2). The assay can be described thus: coimmunoprecipitation, coexpressed in 293T cells.

These are yes or no findings as the source states them, for the method shown. In cells and extracts the contact can be indirect. Tags and fused reporters may be left off the sequences shown.

B1: IRAK-2 (IRAK-2α; IRAK-2-MyC expression construct) (enzyme, not shown: small tags and cut ends)
chain: MACYIYQLPSWVLDDLCRNMDALSEWDWMEFASYVITDLTQLRKIKSMERVQGVSITRELLWWWGMRQATVQQLVDLLCRLELYRAAQIILNWKPAPEIRCPIPAFPDSVKPEKPLAASVRKAEDEQEEGQPVRMATFPGPGSSPARAHQPAFLQPPEEDAPHSLRSDLPTSSDSKDFSTSIPKQEKLLSLAGDSLFWSEADVVQATDDFNQNRKISQGTFADVYRGHRHGKPFVFKKLRETACSSPGSIERFFQAELQICLRCCHPNVLPVLGFCAARQFHSFIYPYMANGSLQDRLQGQGGSEPLPWPQRVSICSGLLCAVEYLHGLEIIHSNVKSSNVLLDQNLTPKLAHPMAHLCPVNKRSKYTMMKTHLLRTSAAYLPEDFIRVGQLTKRVDIFSCGIVLAEVLTGIPAMDNNRSPVYLKDLLLSEIPSSTASLCSRKTGVENVMAKEICQKYLEKGAGRLPEDCAEALATAACLCLRRRNTSLQEVCGSVAAVEERLRGRETLLPWSGLSEGTGSSSNTPEETDDVDNSSLDASSSMSVAPWAGAATPLLPTENGEGRLRVIVGREADSSSEACVGLEPPQDVT
Regarding B1, the binding entry was “no binding”.
